# Patent US20250065147A1, “SYSTEMS AND METHODS FOR PHOTODYNAMIC THERAPY” (Virginia Commonwealth University, priority 2023, published 2025)
# Test system: HCC (human liver cancer)
# Test: PDT with ICG (809 nm laser) in PDOX mouse model
# Format: in vivo
# From the text: We set up a study of PDT with ICG using patient derived orthotopic xenograft (PDOX) mouse model (FIG. 7). In the PDOX model, the mouse liver has human liver cancer. […] We then found the optimal laser wavelength that liver-ICG can absorb with maximum intensity which was 809 nm (FIG. 2). We set up the laser to treat HCC with PDT with the setting numbers in Table 1.
smiles,measurement,setting,value
"CC1(C)C(/C=C/C=C/C=C/C=C2\N(CCCCS(=O)(=O)O)c3ccc4ccccc4c3C2(C)C)=[N+](CCCCS(=O)(=O)[O-])c2ccc3ccccc3c21 [ICG, indocyanine green]",finding on IVIS imaging after laser,24-48 hrs after applying 809 nm laser (Table 1 settings),breakdown of ICG
same,pathologic evaluation: ICG on the specimen,specimen after PDT with ICG,breakdown of ICG
